Reference: PubChem BioAssay AID1224830 (NIAID, 2016)
The deposit covers about 18,000 reagents; this is a part drawn at random. About 2,900 of them (16%) count as active. 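Calls are made per well; low scores hint the gene aids the LPS response, high scores that it dampens it.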 Repeated entries: four replicate wells of each siRNA pool.

- Aim: 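Genes whose knock-down alters the TNF-alpha reporter response to LPS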 (primary screen)
- Cell system: human THP-1 monocytic leukaemia cells, TNF dual-luciferase reporter clone, PMA-differentiated to macrophage-like cells
- Reagent: siRNA pool against human genes, 50 nM
- Duration: LPS for 4 h, given about 3 days after siRNA transfection
- Treatment: bacterial LPS (TLR4 ligand), 10 ng/ml
- Detection: 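Ratio of firefly to renilla light, scaled to the plate median and expressed as a robust z-score per replicate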
- Scale: TNF reporter robust z-score: higher = stronger TNF reporter response to LPS
- Hit rule: 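Each well counts as active if its z-score is over 2.8 or under -1.5; controls are left without a call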

| gene symbol | TNF reporter robust z-score | outcome |
| --- | --- | --- |
| RMI1 (GeneID 80010) | -0.48 | inactive |
| RMI1 (GeneID 80010) | -0.13 | inactive |
| RMI1 (GeneID 80010) | -1.11 | inactive |
| RMI1 (GeneID 80010) | 0.83 | inactive |
| HRK (GeneID 8739) | 0.82 | inactive |
| HRK (GeneID 8739) | 2.41 | inactive |
| HRK (GeneID 8739) | 0.32 | inactive |
| HRK (GeneID 8739) | 1.43 | inactive |
| ZNF362 (GeneID 149076) | 1.61 | inactive |
| ZNF362 (GeneID 149076) | 1.63 | inactive |
| ZNF362 (GeneID 149076) | 1.71 | inactive |
| ZNF362 (GeneID 149076) | 1.68 | inactive |
| CRX (GeneID 1406) | -1.04 | inactive |
| CRX (GeneID 1406) | -0.05 | inactive |
| CRX (GeneID 1406) | -0.9 | inactive |
| CRX (GeneID 1406) | -1.17 | inactive |
| CSNK1A1L (GeneID 122011) | 0.79 | inactive |
| CSNK1A1L (GeneID 122011) | 1.69 | inactive |
| CSNK1A1L (GeneID 122011) | -1.17 | inactive |
| CSNK1A1L (GeneID 122011) | 2.46 | inactive |
| NECAB3 (GeneID 63941) | 3.13 | active |
| NECAB3 (GeneID 63941) | 4.09 | active |
| NECAB3 (GeneID 63941) | 0.2 | inactive |
| NECAB3 (GeneID 63941) | 1.78 | inactive |
| UGGT1 (GeneID 56886) | 0.62 | inactive |
| UGGT1 (GeneID 56886) | -0.36 | inactive |
| UGGT1 (GeneID 56886) | -1.23 | inactive |
| UGGT1 (GeneID 56886) | -0.53 | inactive |
| APPBP2 (GeneID 10513) | 0.31 | inactive |
| APPBP2 (GeneID 10513) | -0.19 | inactive |
| APPBP2 (GeneID 10513) | 0.12 | inactive |
| APPBP2 (GeneID 10513) | 1.18 | inactive |
| UBE2B (GeneID 7320) | -0.2 | inactive |
| UBE2B (GeneID 7320) | 0.73 | inactive |
| UBE2B (GeneID 7320) | 2.26 | inactive |
| UBE2B (GeneID 7320) | 0.18 | inactive |
| SHOC2 (GeneID 8036) | 2.09 | inactive |
| SHOC2 (GeneID 8036) | 1.37 | inactive |
| SHOC2 (GeneID 8036) | 0.74 | inactive |
| SHOC2 (GeneID 8036) | 1.64 | inactive |
| DAGLB (GeneID 221955) | -0.84 | inactive |
| DAGLB (GeneID 221955) | -0.38 | inactive |
| DAGLB (GeneID 221955) | -0.93 | inactive |
| DAGLB (GeneID 221955) | 0.32 | inactive |
| PCDHA4 (GeneID 56144) | -1.7 | active |
| PCDHA4 (GeneID 56144) | -1.99 | active |
| PCDHA4 (GeneID 56144) | -2.01 | active |
| PCDHA4 (GeneID 56144) | -1.62 | active |
| RIMS4 (GeneID 140730) | -0.19 | inactive |
| RIMS4 (GeneID 140730) | 1.06 | inactive |
| RIMS4 (GeneID 140730) | -0.06 | inactive |
| RIMS4 (GeneID 140730) | 0.27 | inactive |
| POLR3G (GeneID 10622) | -0.2 | inactive |
| POLR3G (GeneID 10622) | 0.12 | inactive |
| POLR3G (GeneID 10622) | 0.15 | inactive |
| POLR3G (GeneID 10622) | 0.42 | inactive |
| BEX3 (GeneID 27018) | 1.02 | inactive |
| BEX3 (GeneID 27018) | -0.91 | inactive |
| BEX3 (GeneID 27018) | -0.66 | inactive |
| BEX3 (GeneID 27018) | -1.62 | active |
| CHD3 (GeneID 1107) | 1.43 | inactive |
| CHD3 (GeneID 1107) | 4.7 | active |
| CHD3 (GeneID 1107) | 2.18 | inactive |
| CHD3 (GeneID 1107) | 4.1 | active |
| TM7SF2 (GeneID 7108) | -0.64 | inactive |
| TM7SF2 (GeneID 7108) | -0.07 | inactive |
| TM7SF2 (GeneID 7108) | -0.44 | inactive |
| TM7SF2 (GeneID 7108) | 0.58 | inactive |
| FGFBP1 (GeneID 9982) | -0.96 | inactive |
| FGFBP1 (GeneID 9982) | -1.19 | inactive |
| FGFBP1 (GeneID 9982) | -1.55 | active |
| FGFBP1 (GeneID 9982) | -1.53 | active |
| ADGRD1 (GeneID 283383) | -0.84 | inactive |
| ADGRD1 (GeneID 283383) | -0.93 | inactive |
| ADGRD1 (GeneID 283383) | -0.66 | inactive |
| ADGRD1 (GeneID 283383) | 0.16 | inactive |
| STPG3 (GeneID 441476) | 0.01 | inactive |
| STPG3 (GeneID 441476) | 0.45 | inactive |
| STPG3 (GeneID 441476) | -0.23 | inactive |
| STPG3 (GeneID 441476) | 0.44 | inactive |
| VILL (GeneID 50853) | -1.15 | inactive |
| VILL (GeneID 50853) | -0.52 | inactive |
| VILL (GeneID 50853) | -0.63 | inactive |
| VILL (GeneID 50853) | 0.56 | inactive |
| RNF112 (GeneID 7732) | -0.74 | inactive |
| RNF112 (GeneID 7732) | 0.52 | inactive |
| RNF112 (GeneID 7732) | -0.34 | inactive |
| RNF112 (GeneID 7732) | 1.3 | inactive |
| TSC2 (GeneID 7249) | -0.21 | inactive |
| TSC2 (GeneID 7249) | 0.26 | inactive |
| TSC2 (GeneID 7249) | 2.15 | inactive |
| TSC2 (GeneID 7249) | -0.62 | inactive |
| CCDC181 (GeneID 57821) | 0.32 | inactive |
| CCDC181 (GeneID 57821) | 0.92 | inactive |
| CCDC181 (GeneID 57821) | 2.02 | inactive |
| CCDC181 (GeneID 57821) | 1.58 | inactive |
| CLASP1 (GeneID 23332) | 0.91 | inactive |
| CLASP1 (GeneID 23332) | 1.15 | inactive |
| CLASP1 (GeneID 23332) | 0.89 | inactive |
| CLASP1 (GeneID 23332) | 0.74 | inactive |
| CLDN15 (GeneID 24146) | -0.31 | inactive |
| CLDN15 (GeneID 24146) | -0.55 | inactive |
| CLDN15 (GeneID 24146) | -1.96 | active |
| CLDN15 (GeneID 24146) | -1.01 | inactive |
| BORCS7 (GeneID 119032) | 0.15 | inactive |
| BORCS7 (GeneID 119032) | 0.87 | inactive |
| BORCS7 (GeneID 119032) | 0.78 | inactive |
| BORCS7 (GeneID 119032) | 1.91 | inactive |
| LSM8 (GeneID 51691) | 1.11 | inactive |
| LSM8 (GeneID 51691) | 4.6 | active |
| LSM8 (GeneID 51691) | 0.15 | inactive |
| LSM8 (GeneID 51691) | 2.69 | inactive |
